Reference: PubChem BioAssay AID1259405 (NCATS, 2018)

Screen: 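Knock-downs that lift recombinant protein yield in hamster ovary cells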 (primary screen)
Cell system: Chinese hamster CHO-K1 ovary cells with stable secreted eGFP expression
Knock-down reagent: single siRNA against mouse genes, 0.8 pmol siRNA per well (2 µl of 400 nM stock)
Duration: 3 days
Read-out: 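Per-well intracellular GFP measured by laser scanning cytometry, plus viability from ATP luminescence, each relative to plate median of non-targeting control wells, in %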
Reading the numbers: GFP, % of control: higher = more GFP per well, higher productivity; viability (ATP), % of control: higher = more viable cells (more ATP)
Hit rule: 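Called active when intracellular GFP, relative to negative control, is at or above 120%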
The deposit covers about 50,000 reagents; shown is a part drawn at random. About 4,000 of all reagents (8%) were called active. 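Mouse siRNA library applied to hamster cells; one well for each siRNA.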 A number with no mark means an inactive call. Reagents against one gene are numbered here.

With Pak2, what does the deposit list?
GFP, % of control: 31.7; viability (ATP), % of control: 35.6

What is on record for C8a #1?
GFP, % of control: 52.8; viability (ATP), % of control: 60.5

What did the screen give for C8a #2?
GFP, % of control: 81.4; viability (ATP), % of control: 76.3

With C8a #3, what does the deposit list?
GFP, % of control: 67.3; viability (ATP), % of control: 60.5

How did the screen score Tmem170 #1?
GFP, % of control: 87.9; viability (ATP), % of control: 65.6

How did the screen score Tmem170 #2?
GFP, % of control: 65.6; viability (ATP), % of control: 71.7

For Tmem170 #3, how do the results read?
GFP, % of control: 89.9; viability (ATP), % of control: 123

Limited to “viability (ATP), % of control”, for 2 of the entries above:
C8a #3 = 60.5
Tmem170 #1 = 65.6

The results go on.
For Rab30 #1, what was measured?
GFP, % of control: 94.4; viability (ATP), % of control: 115

What is on record for Rab30 #2?
GFP, % of control: 56.1; viability (ATP), % of control: 42.7

How did the screen score Rab30 #3?
GFP, % of control: 78.3; viability (ATP), % of control: 83.6

For Ppp2r1a #1, what was measured?
GFP, % of control: 83.3; viability (ATP), % of control: 92.8

How did the screen score Ppp2r1a #2?
GFP, % of control: 62.9; viability (ATP), % of control: 78.8

For Ppp2r1a #3, what was measured?
GFP, % of control: 88.3; viability (ATP), % of control: 101

With Nbr1 #1, what does the deposit list?
GFP, % of control: 167 (active); viability (ATP), % of control: 110

How did the screen score Nbr1 #2?
GFP, % of control: 64.3; viability (ATP), % of control: 86.8

What did the screen give for Nbr1 #3?
GFP, % of control: 53.2; viability (ATP), % of control: 43.7
